Data: US20060094672A1 (University of Texas, published 2006)
These are yes or no findings as the source states them, for the method shown. A result given as binding can be weak or reduced; the word gives no strength.

Biological target: T1, prohibitin (B cell receptor associated protein; prohibitin receptor protein complex) (mouse)
T1 sequence (P67778 2-272, looked up): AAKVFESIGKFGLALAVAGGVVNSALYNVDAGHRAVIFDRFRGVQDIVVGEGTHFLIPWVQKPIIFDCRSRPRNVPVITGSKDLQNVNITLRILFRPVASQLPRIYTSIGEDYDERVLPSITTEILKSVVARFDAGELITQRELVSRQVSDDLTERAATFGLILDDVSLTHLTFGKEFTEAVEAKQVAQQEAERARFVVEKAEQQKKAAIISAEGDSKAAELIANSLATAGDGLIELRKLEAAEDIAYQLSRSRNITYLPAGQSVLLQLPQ
Experiment: immunoprecipitation from mouse adipose tissue extract, SDS-PAGE

- binding: binds
Binder: CARACKLAKLAKKLAKLAK (cyclized using the terminal cysteines) [CARAC (SEQ ID NO:12) conjugated to (KLAKLAK)2 (SEQ ID NO:1)]
